Results are given in words; binding and its absence hold for the method and conditions named. In cells and extracts the contact can be indirect. Here binding means that the protein was enriched with, or labelled near, the bait; the list need not be complete. Tags and fused reporters may be left off the sequences shown.
T1: Thylakoid rhodanese-like protein (TROL) with HA and FLAG tags (TROL-HA-FLAG) (Arabidopsis thaliana) (UniProt Q9M158)
T1 sequence: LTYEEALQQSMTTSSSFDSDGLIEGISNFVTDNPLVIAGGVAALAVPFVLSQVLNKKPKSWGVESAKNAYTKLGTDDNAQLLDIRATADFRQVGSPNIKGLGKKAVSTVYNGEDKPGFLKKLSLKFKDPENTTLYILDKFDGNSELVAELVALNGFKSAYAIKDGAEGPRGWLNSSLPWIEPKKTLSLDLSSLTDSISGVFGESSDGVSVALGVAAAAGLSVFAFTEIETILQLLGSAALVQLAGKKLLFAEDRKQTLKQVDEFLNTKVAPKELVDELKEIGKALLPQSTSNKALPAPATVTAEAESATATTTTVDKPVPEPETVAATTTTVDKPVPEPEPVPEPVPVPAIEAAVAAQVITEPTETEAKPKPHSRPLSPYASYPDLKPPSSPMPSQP


biological target: T1, Thylakoid rhodanese-like protein (TROL) with HA and FLAG tags (TROL-HA-FLAG) (Arabidopsis thaliana); assay: affinity purification with mass spectrometry; FLAG/HA tandem affinity purification of TROL-HA-FLAG from thylakoids of TROL OX Arabidopsis solubilised in 1% DDM; anti-FLAG resin overnight at 4 °C, RIPA wash, 3 × FLAG peptide elution, anti-HA resin 1.5 h at 4 °C, elution with 8 M urea and Laemmli buffer; GeLC-MS/MS; three independent trials, protein threshold 99.9%, peptide threshold 95%

Row | Binder | binding
1 | Probable plastid-lipid-associated protein 8, chloroplastic (protein, UniProt Q941D3 53-239) SVSAPNVELRTGPDDLISTLLSKVANSDGGVTLSPEQHKEVAQVAGELQKYCVKEPVKNPLIFGDWEVVYCSRPTSPGGGYRSVIGRLFFKTKEMIQAIDAPDIVRNKVSINAFGFLDGDVSLTGKLKALDSEWVQVIFEPPEIKVGSLEFKYGFESEVKLRITYVDEKLRLGLGSKGSLFVFRRRQ | binds
2 | Lipoxygenase 2, chloroplastic (enzyme, UniProt P38418 57-896) ANIEQEGNTVKEPIQNIKVKGYITAQEEFLEGITWSRGLDDIADIRGRSLLVELISAKTDQRITVEDYAQRVWAEAPDEKYECEFEMPEDFGPVGAIKIQNQYHRQLFLKGVELKLPGGSITFTCESWVAPKSVDPTKRIFFSDKSYLPSQTPEPLKKYRKEELETLQGKNREEVGEFTKFERIYDYDVYNDVGDPDNDPELARPVIGGLTHPYPRRCKTGRKPCETDPSSEQRYGGEFYVPRDEEFSTAKGTSFTGKAVLAALPSIFPQIESVLLSPQEPFPHFKAIQNLFEEGIQLPKDAGLLPLLPRIIKALGEAQDDILQFDAPVLINRDRFSWLRDDEFARQTLAGLNPYSIQLVEEWPLISKLDPAVYGDPTSLITWEIVEREVKGNMTVDEALKNKRLFVLDYHDLLLPYVNKVRELNNTTLYASRTLFFLSDDSTLRPVAIELTCPPNINKPQWKQVFTPGYDATSCWLWNLAKTHAISHDAGYHQLISHWLRTHACTEPYIIAANRQLSAMHPIYRLLHPHFRYTMEINARARQSLVNGGGIIETCFWPGKYALELSSAVYGKLWRFDQEGLPADLIKRGLAEEDKTAEHGVRLTIPDYPFANDGLILWDAIKEWVTDYVKHYYPDEELITSDEELQGWWSEVRNIGHGDKKDEPWWPVLKTQDDLIGVVTTIAWVTSGHHAAVNFGQYGYGGYFPNRPTTTRIRMPTEDPTDEALKEFYESPEKVLLKTYPSQKQATLVMVTLDLLSTHSPDEEYIGEQQEASWANEPVINAAFERFKGKLQYLEGVIDERNVNITLKNRAGAGVVKYELLKPTSEHGVTGMGVPYSISI | binds
3 | Light-regulated protein 1, chloroplastic (protein, UniProt Q96500 42-141) SNNSSSSSSLTSDPNTVDYNSSILSVFPAEACEVISGYACSADIYPEVKLDTKPVSRPVASEPVDREYEEYNSPKTVFREEACDDLGGEFCEPDFQKDAN | binds
4 | Protein CURVATURE THYLAKOID 1A, chloroplastic (protein, UniProt O04616 63-164) ASSEETSSIDTNELITDLKEKWDGLENKSTVLIYGGGAIVAVWLSSIVVGAINSVPLLPKVMELVGLGYTGWFVYRYLLFKSSRKELAEDIESLKKKIAGSE | binds
5 | PGR5-like protein 1A, chloroplastic (protein, UniProt Q8H112 61-324) ATTEQSGPVGGDNVDSNVLPYCSINKAEKKTIGEMEQEFLQALQSFYYDGKAIMSNEEFDNLKEELMWEGSSVVMLSSDEQRFLEASMAYVSGNPILNDEEYDKLKLKLKIDGSDIVSEGPRCSLRSKKVYSDLAVDYFKMLLLNVPATVVALGLFFFLDDITGFEITYIMELPEPYSFIFTWFAAVPVIVYLALSITKLIIKDFLILKGPCPNCGTENTSFFGTILSISSGGKTNTVKCTNCGTAMVYDSGSRLITLPEGSQA | binds
6 | L-ascorbate peroxidase T, chloroplastic (enzyme, UniProt Q42593 79-426) AASDAAQLISAKEDIKVLLRTKFCHPILVRLGWHDAGTYNKNIEEWPLRGGANGSLRFEAELKHAANAGLLNALKLIQPLKDKYPNISYADLFQLASATAIEEAGGPDIPMKYGRVDVVAPEQCPEEGRLPDAGPPSPADHLRDVFYRMGLDDKEIVALSGAHTLGRARPDRSGWGKPETKYTKTGPGEAGGQSWTVKWLKFDNSYFKDIKEKRDDDLLVLPTDAALFEDPSFKNYAEKYAEDVAAFFKDYAEAHAKLSNLGAKFDPPEGIVIENVPEKFVAAKYSTGKKELSDSMKKKIRAEYEAIGGSPDKPLPTNYFLNIIIAIGVLVLLSTLFGGNNNSDFSGF | binds
